Experimental data: PubChem BioAssay AID1259308 (NCATS, 2017)
The whole screen tested about 59,000 reagents; below is a part drawn at random. About 1,510 of them (2.6%) count as active. 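Calls use total luciferase alone and ignore viability, so some active siRNAs may act by altering cell number.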 Entries without a mark were called inactive. Reagents against one gene are numbered here. Further read-outs or replicates are left out here. Reagent sequences are not shown.

Purpose: 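Candidate targets for better recombinant protein yield in mammalian cells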 (primary screen)
System: human HEK293 embryonic kidney cells stably expressing firefly luciferase (HEK-CMV-Luc2-Hygro)
Reagents: single siRNA against human genes, 0.8 pmol siRNA per well
Timing: 72 h
Measured: 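Luciferase light (ONE-Glo) measured on one replicate plate set and viability (CellTiter-Glo) on the other, scaled to a negative control siRNA, with robust z-scores and luciferase per cell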
Reading the numbers: total luciferase, z-score: higher = more reporter protein produced
Rule for the call: 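Active when the median/MAD z-score for overall luciferase is greater than 3; a gene was taken forward for validation with new siRNAs if at least two of its three siRNAs passed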
Calls: active = raised luciferase; inactive = no rise

Knock-down of PITHD1 #1 gave: total luciferase, z-score 1.21.
Knock-down of PITHD1 #2 came out at: total luciferase, z-score 0.47.
After knock-down of PITHD1 #3 the results were total luciferase, z-score -1.05.
Depletion of TMEM215 #1 came out at: total luciferase, z-score -1.78.
After knock-down of TMEM215 #2 the results were total luciferase, z-score -1.76.
Depletion of TMEM215 #3 resulted in: total luciferase, z-score -0.737.

Part of the list above in another layout.
TMEM215 #1
- total luciferase, z-score: -1.78

TMEM215 #2
- total luciferase, z-score: -1.76

Further records:
Knock-down of COX10 #1 came out at: total luciferase, z-score 0.592.
Against COX10 #2, the values are total luciferase, z-score -1.71.
COX10 #3 scored total luciferase, z-score -0.337.
Knock-down of CKAP2 #1 gave: total luciferase, z-score -0.483.
For CKAP2 #2, the entry reads total luciferase, z-score -0.48.
For CKAP2 #3 the deposit lists total luciferase, z-score 1.06.
